Reference: the supplement of paper PMC8728848
This is one part of the list.

Experiments:
Assay in all cases: glycan array binding signal (z-score within array); higher = stronger binding
Details in all cases: glycan notation: IUPAC condensed, linker removed
GalNAc(b1-3)Gal = target: GalNAc(b1-3)Gal
Summary of the method: (§1)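 The binding signal is a Z-score computed within each array. Data were drawn from 3228 arrays in the Consortium for Functional Glycomics database, restricted to those with a known protein sequence. Scores were averaged over arrays of the same protein sequence at different concentrations or buffers, and over linkers, and negative values can be taken as non-binding.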

[1] = target: GalNAc(b1-3)Gal(a1-4)Gal(b1-4)GlcNAc
Summary of the method: as §1

[2] = target: GalNAc(b1-3)Gal(a1-4)Gal(b1-4)GlcNAc(b1-3)Gal(b1-4)Glc
Summary of the method: as §1

[3] = target: GalNAc(b1-3)Gal(a1-6)Gal(b1-4)Glc
Summary of the method: as §1

GalNAc(b1-3)GalNAc = target: GalNAc(b1-3)GalNAc
Summary of the method: as §1

GalNAc(b1-4)Gal(b1-4)Glc = target: GalNAc(b1-4)Gal(b1-4)Glc
Summary of the method: as §1

GalNAc(b1-4)GlcNAc = target: GalNAc(b1-4)GlcNAc
Summary of the method: as §1

[4] = target: GalNAc(b1-4)GlcNAc(b1-2)Man(a1-3)[GalNAc(b1-4)GlcNAc(b1-2)Man(a1-6)]Man(b1-4)GlcNAc(b1-4)GlcNAc
Summary of the method: as §1

GalNAc(b1-6)GalNAc = target: GalNAc(b1-6)GalNAc
Summary of the method: as §1

Glc(a1-4)Glc = target: Glc(a1-4)Glc
Summary of the method: as §1

[5] = target: Glc(a1-4)Glc(a1-4)Glc(a1-4)Glc
Summary of the method: as §1

Glc(a1-6)Glc(a1-6)Glc = target: Glc(a1-6)Glc(a1-6)Glc
Summary of the method: as §1

[6] = target: Glc(a1-6)Glc(a1-6)Glc(a1-6)Glc
Summary of the method: as §1

Glc(b1-4)Glc = target: Glc(b1-4)Glc
Summary of the method: as §1

Glc(b1-6)Glc = target: Glc(b1-6)Glc
Summary of the method: as §1

GlcA(b1-3)Gal = target: GlcA(b1-3)Gal
Summary of the method: as §1

GlcA(b1-3)GlcNAc = target: GlcA(b1-3)GlcNAc
Summary of the method: as §1

GlcA(b1-6)Gal = target: GlcA(b1-6)Gal
Summary of the method: as §1

[7] = target: GlcNAc(a1-3)Gal(b1-4)GlcNAc
Summary of the method: as §1

[8] = target: GlcNAc(a1-4)Gal(b1-3)GlcNAc
Summary of the method: as §1

[9] = target: GlcNAc(a1-4)Gal(b1-4)GalNAc
Summary of the method: as §1

[10] = target: GlcNAc(a1-4)Gal(b1-4)GlcNAc
Summary of the method: as §1

[11] = target: GlcNAc(a1-4)Gal(b1-4)GlcNAc(b1-3)Gal(b1-4)Glc
Summary of the method: as §1

[12] = target: GlcNAc(a1-4)Gal(b1-4)GlcNAc(b1-3)Gal(b1-4)GlcNAc
Summary of the method: as §1

[13] = target: GlcNAc(a1-4)Gal(b1-4)GlcNAc(b1-3)Gal(b1-4)GlcNAc(b1-3)Gal(b1-4)GlcNAc
Summary of the method: as §1

[14] = target: GlcNAc(a1-4)Gal(b1-4)GlcNAc(b1-3)Gal(b1-4)[Fuc(a1-3)]GlcNAc(b1-3)Gal(b1-4)[Fuc(a1-3)]GlcNAc
Summary of the method: as §1

[15] = target: GlcNAc(a1-6)Gal(b1-4)GlcNAc
Summary of the method: as §1

[16] = target: GlcNAc(b1-2)Gal(b1-3)GalNAc
Summary of the method: as §1

[17] = target: GlcNAc(b1-2)Man(a1-3)[GlcNAc(b1-2)Man(a1-6)]Man(b1-4)GlcNAc(b1-4)GlcNAc
Summary of the method: as §1

[18] = target: GlcNAc(b1-2)Man(a1-3)[GlcNAc(b1-2)Man(a1-6)]Man(b1-4)GlcNAc(b1-4)[Fuc(a1-6)]GlcNAc
Summary of the method: as §1

[19] = target: GlcNAc(b1-2)Man(a1-3)[GlcNAc(b1-4)][GlcNAc(b1-2)Man(a1-6)]Man(b1-4)GlcNAc(b1-4)GlcNAc
Summary of the method: as §1

[20] = target: GlcNAc(b1-2)[GlcNAc(b1-4)]Man(a1-3)[GlcNAc(b1-2)Man(a1-6)]Man(b1-4)GlcNAc(b1-4)GlcNAc
Summary of the method: as §1

[21] = target: GlcNAc(b1-2)[GlcNAc(b1-4)]Man(a1-3)[GlcNAc(b1-4)][GlcNAc(b1-2)Man(a1-6)]Man(b1-4)GlcNAc(b1-4)GlcNAc
Summary of the method: as §1

[22] = target: GlcNAc(b1-2)[GlcNAc(b1-4)]Man(a1-3)[GlcNAc(b1-4)][GlcNAc(b1-2)[GlcNAc(b1-6)]Man(a1-6)]Man(b1-4)GlcNAc(b1-4)GlcNAc
Summary of the method: as §1

[23] = target: GlcNAc(b1-2)[GlcNAc(b1-6)]Man(a1-6)[GlcNAc(b1-2)Man(a1-3)]Man(b1-4)GlcNAc(b1-4)GlcNAc
Summary of the method: as §1

[24] = target: GlcNAc(b1-2)[GlcNAc(b1-6)]Man(a1-6)[GlcNAc(b1-2)Man(a1-3)][GlcNAc(b1-4)]Man(b1-4)GlcNAc(b1-4)GlcNAc
Summary of the method: as §1

GlcNAc(b1-3)Gal = target: GlcNAc(b1-3)Gal
Summary of the method: as §1

[25] = target: GlcNAc(b1-3)Gal(b1-3)GalNAc
Summary of the method: as §1

B1: CD72 ectodomain (Homo sapiens), P21854 (protein)
chain: RYLQVSQQLQQTNRVLEVTNSSLRQQLRLKITQLGQSAEDLQGSRRELAQSQEALQVEQRAHQAAEGQLQACQADRQKTKETLQSEEQQRRALEQKLSNMENRLKPFFTCGSADTCCPSGWIMHQKSCFYISLTSKNWQESQKQCETLSSKLATFSEIYPQSHSYYFLNSLLPNGGSGNSYWTGLSSNKDWKLTDDTQRTRTYAQSSKCNKVHKTWSWWTLESESCRSSLPYICEMTAFRFPD
GalNAc(b1-3)Gal
  glycan array binding signal (z-score): -0.844
[1]
  glycan array binding signal (z-score): -0.315
[2]
  glycan array binding signal (z-score): -0.842
[3]
  glycan array binding signal (z-score): 0.123
GalNAc(b1-3)GalNAc
  glycan array binding signal (z-score): -0.248
GalNAc(b1-4)Gal(b1-4)Glc
  glycan array binding signal (z-score): 1.59
GalNAc(b1-4)GlcNAc
  glycan array binding signal (z-score): 0.596
[4]
  glycan array binding signal (z-score): -0.456
GalNAc(b1-6)GalNAc
  glycan array binding signal (z-score): -0.435
Glc(a1-4)Glc
  glycan array binding signal (z-score): -0.976
[5]
  glycan array binding signal (z-score): 0.022
Glc(a1-6)Glc(a1-6)Glc
  glycan array binding signal (z-score): -1.44
[6]
  glycan array binding signal (z-score): 1.11
Glc(b1-4)Glc
  glycan array binding signal (z-score): -0.195
Glc(b1-6)Glc
  glycan array binding signal (z-score): -0.267
GlcA(b1-3)Gal
  glycan array binding signal (z-score): 2.21
GlcA(b1-3)GlcNAc
  glycan array binding signal (z-score): -0.556
GlcA(b1-6)Gal
  glycan array binding signal (z-score): -0.506
[7]
  glycan array binding signal (z-score): -0.623
[8]
  glycan array binding signal (z-score): -1.11
[9]
  glycan array binding signal (z-score): -0.109
[10]
  glycan array binding signal (z-score): -0.957
[11]
  glycan array binding signal (z-score): 0.006
[12]
  glycan array binding signal (z-score): 4.25
[13]
  glycan array binding signal (z-score): 0.153
[14]
  glycan array binding signal (z-score): 1.91
[15]
  glycan array binding signal (z-score): 4.24
[16]
  glycan array binding signal (z-score): -1.19
[17]
  glycan array binding signal (z-score): -0.238
[18]
  glycan array binding signal (z-score): 2.59
[19]
  glycan array binding signal (z-score): -0.418
[20]
  glycan array binding signal (z-score): 0.649
[21]
  glycan array binding signal (z-score): -0.785
[22]
  glycan array binding signal (z-score): 0.252
[23]
  glycan array binding signal (z-score): -0.215
[24]
  glycan array binding signal (z-score): 0.485
GlcNAc(b1-3)Gal
  glycan array binding signal (z-score): -0.65
[25]
  glycan array binding signal (z-score): 1
